# Assay results

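Genome-wide siRNA knockdown in TC32 Ewing sarcoma cells, comparing luciferase light from an NR0B1-promoter reporter with a CMV-promoter reporter 48 hours after transfection.
Each siRNA was applied at 20 nM.
A z-score of the log NR0B1-over-CMV signal, less the median of siRNAs with the same seed; more negative means a stronger specific loss of the NR0B1 reporter.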

This is part of the screen; most of the strongest results are not listed here.
Sequences are the guide (antisense) strand, without overhang.

* AGAAUAACUAAUGUCAAGG against OR6C75 : seed-corrected z-score -0.3129
* UUCGGUACUUCUCUCUUUC against SENP2 : seed-corrected z-score 0.4324
* UUUGGGUUAUCUUGAAACC against POU2F3 : seed-corrected z-score 1.372
* UUACGGAAGGUGUAGCCGG against DNAJB8 : seed-corrected z-score -0.2658
* CUCUCGUUGAGUCUUGCAG against RPS10P30 : seed-corrected z-score 0.1146
* AUAACGGCAACUAAUAGUG against ANKRD7 : seed-corrected z-score -0.1157
* UAAAUGAAGAGCUCAAGAU against TPT1 : seed-corrected z-score -0.2204
* UUGAGUAACUUCGCCUGCG against TXNRD2 : seed-corrected z-score 0.4715
* UUACGGUCUCCAAAAGUGU against EFNA3 : seed-corrected z-score 0.7724
* UUGCCUUUCGCUGAUAUCC against GPR21 : seed-corrected z-score -0.6596
* UUUCUAUAAAGUAAGACAC against ASCL1 : seed-corrected z-score 0.5458
* AUAAGUAUCCGCUUCUAUG against GALM : seed-corrected z-score -0.472
* UUCGGUCGAACAGAUGAGG against TLK1 : seed-corrected z-score -0.06954
* UAGUUUAGAAACAAUCUUG against SCG3 : seed-corrected z-score 0.1535
* ACAUUGACGAGAGCGGCUG against GGTLC2 : seed-corrected z-score 1.23
* UUAACCUCAAGGUAGAAGC against ZNF549 : seed-corrected z-score 0.6576
* UUGGGAAAAAUCAAGUCCU against DEFB105A : seed-corrected z-score -0.872
* ACAUGGAACGCUUUACCGC against PKMYT1 : seed-corrected z-score 0.3381
* UGAAUAGAAAGGAAAUACU against PMS2P10 : seed-corrected z-score 0.2019
* UUACAACUUGCAUAAAGGC against NME4 : seed-corrected z-score 0.03936
* UGUAGCAUCAGGGUACUGG against SPP1 : seed-corrected z-score -0.6909
* UAAGUUCAUAAGCUGAUAC against SLC5A11 : seed-corrected z-score 0.1322
* UCAUAGUCCAGGACUUGGA against SYT7 : seed-corrected z-score -0.1498
* UCUCCAAUCAUGGUGAAUC against CD55 : seed-corrected z-score 0.202
* UCACGAUGAUGCUUAGUGG against OR2C1 : seed-corrected z-score -0.6776
* AUCGUUUAUAGUAAAAUCG against TMEM131 : seed-corrected z-score 0.9239
* UAGAGCUUCACUGACAGCU against C8G : seed-corrected z-score 0.1193
* UGCUCAAUGAGUUCAAGGC against SPATA18 : seed-corrected z-score -0.1467
* UUGUGGUAUAGCAAAGGUC against OR2B2 : seed-corrected z-score -1.535
* UUUUAUUCCACUCUAACAC against TMEM99 : seed-corrected z-score -1.827
* UGACUCUUACGAAUGCUGC against HNF4G : seed-corrected z-score 0.07293
* UAGGAAUUCCCUAGCAUCC against C2orf72 : seed-corrected z-score 0.3329
* UCAUGGACCAGGAAUUUCC against RPL32P36 : seed-corrected z-score -0.153
* UGAAAGACUAGUUUUGUUU against C20orf187 : seed-corrected z-score 0.8332
* UCAAAGUCGAAGUCCGAGG against C15orf59 : seed-corrected z-score -0.5412
* UCUCCUUGCAGUUUAGGUC against SIPA1L3 : seed-corrected z-score 1.079

For reference, 3 entries once more:

| siRNA | gene | seed-corrected z-score |
|---|---|---|
| `ACAUGGAACGCUUUACCGC` | PKMYT1 | 0.3381 |
| `UAGAGCUUCACUGACAGCU` | C8G | 0.1193 |
| `UGAAAGACUAGUUUUGUUU` | C20orf187 | 0.8332 |

Source: PubChem BioAssay AID1159506 (NCATS, 2015).